# Primary screen of a compound library

From ChEMBL document CHEMBL3988442, “University of Dundee, Small-Polar-MMV Screening Library” (2021).

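Assay on Mycobacterium tuberculosis, filed only as a heat shock assay from Cornell; the read-out is not stated. The concentration is filed as 10 mM, unlikely as a test dose, so the dose is not known. Direction is inferred from retests: higher values go with stronger inhibition. Of about 69,000 compounds tested this way, about 930 (1.4%) reached 50% or more in at least one test.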

Each number is a percent effect as filed.
The record does not define 0% and 100%; most values in the screen are far below 50% and negative numbers occur (in some assays of this library far below -100).
The compounds are a random part of those screened.

For c1nc(N2CCOC(Cn3cncn3)C2)c2cc[nH]c2n1 (centres undefined) the result was -10.87%. CCc1cc(-c2nccn2-c2ccccc2CN2CCOCC2)on1 read 2.731%. For CN1CCC(N(C)CCC(=O)N2CCN(Cc3cccc(F)c3)CC2)C1 (centres undefined) the result was -0.936%. CCS(=O)(=O)c1ccc2oc([C@H]3CCN(Cc4cccnc4)C3)nc2c1 gave -26.81%. With O=C(NCc1ccc(F)cc1)NCC(O)(c1cccs1)C1CC1 (centres undefined) the screen gave 12.51%. With CCc1nnc2n1CCN(Cc1csc(-c3ccccc3F)n1)C2 the screen gave -6.087%. Result for O=c1c(CN2CCCCCC2)coc(O)c1CN1CCCCCC1 was -3.398%. Result for CC1CCCN(Cc2ccc(CNC(=O)NCc3ccncc3)cc2)C1 (centres undefined) was -21.86%.

COc1cccc(C(=O)NC(C)CCN2CCOCC2)c1F (centres undefined) gave -3.817%. O=C(COc1ccc(-c2ccccc2)nc1)NCC1CC1 gave -17.42%. COCCN1CCC2(COCc3c(C)nc(N(C)C)nc32)C1 (centres undefined) gave -9.854%. O=C(NC[C@H]1CCCC[C@H]1O)c1cccc2[nH]c(-c3cccs3)nc12 read 29.66%. With O=C(Cn1ccc2ccccc21)N1CCC(Oc2ncccc2Br)CC1 the screen gave -14.82%. Result for COc1cccc(-c2ncc(CN3CCOCC(O)C3)s2)c1 (centres undefined) was -32%. Result for Cc1noc(-c2ccnc(Oc3ccccc3CN3CCCCC3)c2)n1 was 7.438%. Result for COc1ccc(C(C)NC(=O)c2nn(C)c(C)c2Br)cc1 (centres undefined) was -21.91%.

Cc1nc2c(c(NC(C)C)n1)CCN(C(=O)c1ccno1)CC2.O=C(O)C(F)(F)F gave 7.451%. CN(Cc1nc(CC2CC2)no1)CC1COc2ccccc2O1 (centres undefined) gave -2.088%. CCOc1ccc(Cl)c(C(=O)N2CCN(c3ccncc3)CC2)n1 read -25.62%. With CC(=O)Nc1cc(F)c(S(=O)(=O)N(C)CC2CCC2)c(F)c1 the screen gave -18.69%. Cc1cc(C)n(Cc2cc(C(=O)N3CCCC3c3nccs3)n[nH]2)n1 (centres undefined) read -2.322%. c1cc(-c2nc3c(c(NCCn4ccnn4)n2)CCNCC3)ccn1 gave -28.7%. Result for C[C@H](c1ccc(Cl)cc1)n1c(C2CC2)n[nH]c1=O was -14.39%. For COCCN1CCc2ncnc(-c3ccccc3)c2CC1.O=C(O)C(F)(F)F the result was 16.38%.

For COCCO[C@H]1CCN(Cc2cnn(C)c2)[C@H]1Cc1cccnc1 the result was -29.44%. With [H][C@@]12CS(=O)(=O)C[C@]1([H])N(C(=O)c1ccc3nc(C)oc3c1)CCN2CCC the screen gave -5.121%. For Cc1ccc(C(=O)N2CCC(Oc3cccc(C)c3C)CC2)c(=O)[nH]1 the result was -28.89%. With O=C(O)C(F)(F)F.O=C(c1cccnc1)N1CCCC2(COCCN(c3ccccc3)C2)C1 (centres undefined) the screen gave -5.159%. With Cc1cccc(-c2nc(N)nc3c2CN(C(=O)c2cc(C)n[nH]2)C3C)c1 (centres undefined) the screen gave -11.06%. For Cc1nc(C)n(CC2CCCN(Cc3ncc(C(C)(C)C)o3)C2)n1 (centres undefined) the result was -18.23%. For CC(C)=CCN1CCN(C(=O)C2CC2)CC1 the result was -16.04%. For CC(C)C1COC2(CCN(Cc3ccco3)CC2)C1.O=C(O)C(F)(F)F (centres undefined) the result was -2.879%.

For [H][C@@]12CS(=O)(=O)C[C@]1([H])N(C(=O)c1ccccc1C(C)=O)CCN2CCOC the result was 16.41%. COC(=O)c1ccc(S(=O)(=O)N2CCCn3ncnc32)s1 read -3.517%. Cc1nnc(C(C)N(C)Cc2c(C)nn(-c3ccccc3C)c2C)o1 (centres undefined) read -0.3256%. Result for NC1CCCc2nc(-c3ccccc3)ncc21 (centres undefined) was 3.912%. With Cc1[nH]c2c(C)ccc(C)c2c1CC(=O)NCCNc1cccnc1 the screen gave -11.28%. CC(C)CC(=O)NS(=O)(=O)c1ccc2c(c1)OCCCO2 read -0.9583%. Result for O=C(O)C(F)(F)F.c1ccc(C[C@H]2CN(Cc3nccs3)CC[C@@H]2OCC2CC2)cc1 was 4.279%. With COc1ccc(OCc2nc3cc4c(cc3c(=O)o2)OCCCO4)cc1 the screen gave -127.1%.

Result for CN1CCOC(CNCC(=O)NCCc2ccc(F)cc2)C1 (centres undefined) was -38.4%. With O=S1(=O)NCC2(CCCN(Cc3cccnc3)C2)Oc2ncccc21 (centres undefined) the screen gave -11.27%. With CN(C)c1ccc(NC(=O)CN2CCS(=O)(=O)CC2)cn1 the screen gave 26.31%. CS(=O)(=O)NCc1cc2n(n1)CCCN(Cc1ccc(Cl)s1)C2 read -33.19%. N#Cc1nccnc1N1CCN(CCOCc2ccccc2)CC1 read -20.55%. For N#Cc1ccc(C(=O)N2CCC(c3ncc[nH]3)CC2)cn1 the result was -17.96%. For CCc1c(C)[nH]c(C(C)(N)CC)nc1=O.Cl (centres undefined) the result was -40.22%. CCSc1cncc(N2CCC(C(=O)Nc3ccccn3)CC2)n1 read -0.5299%.

For reference, 3 entries once more:

| SMILES | effect |
|---|---|
| `O=C(NCc1ccc(F)cc1)NCC(O)(c1cccs1)C1CC1` (centres undefined) | 12.51 |
| `O=c1c(CN2CCCCCC2)coc(O)c1CN1CCCCCC1` | -3.398 |
| `CN(Cc1nc(CC2CC2)no1)CC1COc2ccccc2O1` (centres undefined) | -2.088 |